Data as given in patent US12180160B1, “1-(naphthalen-2-yloxy)-3-(piperidin-1-yl)propan-2-ol as an eco-friendly insecticidal agent against Spodoptera littoralis (boisd.)” (priority 2023, dated 2024).

Tested on: Spodoptera littoralis larvae (2nd and 4th instars)
Experiment: Insecticidal bioassay screening (castor leaf dip)
Format: in vivo
Conditions: 72 h, slope of regression (LDP) line
Procedure: Five concentrations (200, 100, 50, 25, 12.5 ppm) were designed for this synthetic compound and the reference fenoxycarb compound as the dynamic ingredients based on ppm via diluting the commercial formulation.
In this experiment, castor leaves are immersed in each of the previously prepared concentrations of the components for 10 seconds and then left to dry for 60 minutes. Larvae of the second and fourth instars of each checked strain are prepared with treated leaves in gauze-covered glass containers for 72 hrs. An untreated control is made in which leaves are dipped in triton x-100 and distilled water only. Then the preserved leaves were removed & fresh, untreated leaves were provided for 72 hours. Three replicates (10 larvae each) were checked for each concentration. Daily inspection was carried out for all treatments and mortality percentages were recorded 3 days (72 hours) after treatment. The average mortality percentage was corrected employing Abbott's formula. The corrected mortality rate for each of the previously synthesized compounds is statistically calculated according to Finney (1970). Through this rate, the corresponding concentration test lines (LDP lines) are assessed. Fifty and ninety percent mortality are determined, and the regression values for the checked products were previously evaluated.

Row | Structure (SMILES) | slope ± SE (2nd instar larvae) | slope ± SE (4th instar larvae)
1 | OC(COc1ccc2ccccc2c1)CN1CCCCC1 (stereo not shown) [Compound 1, 1-(naphthalen-2-yloxy)-3-(piperidin-1-yl)propan-2-ol] | 0.283 ± 0.083 | 0.232 ± 0.085
2 | CCOC(=O)NCCOc1ccc(Oc2ccccc2)cc1 [Fenoxycarb, reference compound] | 0.238 ± 0.082 | 0.251 ± 0.082
